In publication PMC8834516:
No constants are given. Whether binding was seen depends on the method and setting. In cells and extracts the contact can be indirect. Here binding means that the protein was enriched with, or labelled near, the bait; the list need not be complete.

Sequences of proteins named here, by UniProt entry; tags and fusion partners are left off. Residues count along the entry.
UniProt Q9CYT6: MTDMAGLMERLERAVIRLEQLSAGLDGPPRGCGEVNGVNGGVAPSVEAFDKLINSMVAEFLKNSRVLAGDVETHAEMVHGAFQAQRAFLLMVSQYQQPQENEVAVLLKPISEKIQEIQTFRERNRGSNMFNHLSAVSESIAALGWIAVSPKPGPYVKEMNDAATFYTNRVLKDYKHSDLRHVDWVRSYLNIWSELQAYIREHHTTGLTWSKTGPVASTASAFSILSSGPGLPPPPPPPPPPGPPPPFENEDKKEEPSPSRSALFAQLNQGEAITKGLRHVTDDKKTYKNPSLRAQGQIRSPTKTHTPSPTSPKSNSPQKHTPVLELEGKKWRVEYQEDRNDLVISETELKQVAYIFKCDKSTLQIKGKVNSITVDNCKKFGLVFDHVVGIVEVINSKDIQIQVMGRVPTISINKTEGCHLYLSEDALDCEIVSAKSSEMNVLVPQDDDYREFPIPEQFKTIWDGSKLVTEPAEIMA
UniProt Q63844: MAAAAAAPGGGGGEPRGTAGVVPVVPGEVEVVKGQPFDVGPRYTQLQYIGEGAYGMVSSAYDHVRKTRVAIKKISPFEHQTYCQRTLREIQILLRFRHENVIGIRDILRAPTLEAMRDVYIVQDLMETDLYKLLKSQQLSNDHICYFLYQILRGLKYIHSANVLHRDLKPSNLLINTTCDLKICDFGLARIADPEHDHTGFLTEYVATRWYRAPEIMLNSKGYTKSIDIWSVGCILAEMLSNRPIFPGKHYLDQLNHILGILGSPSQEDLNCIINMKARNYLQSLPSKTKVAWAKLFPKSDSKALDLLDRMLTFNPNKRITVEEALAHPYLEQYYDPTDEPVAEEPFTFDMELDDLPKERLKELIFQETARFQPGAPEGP
UniProt G5E829: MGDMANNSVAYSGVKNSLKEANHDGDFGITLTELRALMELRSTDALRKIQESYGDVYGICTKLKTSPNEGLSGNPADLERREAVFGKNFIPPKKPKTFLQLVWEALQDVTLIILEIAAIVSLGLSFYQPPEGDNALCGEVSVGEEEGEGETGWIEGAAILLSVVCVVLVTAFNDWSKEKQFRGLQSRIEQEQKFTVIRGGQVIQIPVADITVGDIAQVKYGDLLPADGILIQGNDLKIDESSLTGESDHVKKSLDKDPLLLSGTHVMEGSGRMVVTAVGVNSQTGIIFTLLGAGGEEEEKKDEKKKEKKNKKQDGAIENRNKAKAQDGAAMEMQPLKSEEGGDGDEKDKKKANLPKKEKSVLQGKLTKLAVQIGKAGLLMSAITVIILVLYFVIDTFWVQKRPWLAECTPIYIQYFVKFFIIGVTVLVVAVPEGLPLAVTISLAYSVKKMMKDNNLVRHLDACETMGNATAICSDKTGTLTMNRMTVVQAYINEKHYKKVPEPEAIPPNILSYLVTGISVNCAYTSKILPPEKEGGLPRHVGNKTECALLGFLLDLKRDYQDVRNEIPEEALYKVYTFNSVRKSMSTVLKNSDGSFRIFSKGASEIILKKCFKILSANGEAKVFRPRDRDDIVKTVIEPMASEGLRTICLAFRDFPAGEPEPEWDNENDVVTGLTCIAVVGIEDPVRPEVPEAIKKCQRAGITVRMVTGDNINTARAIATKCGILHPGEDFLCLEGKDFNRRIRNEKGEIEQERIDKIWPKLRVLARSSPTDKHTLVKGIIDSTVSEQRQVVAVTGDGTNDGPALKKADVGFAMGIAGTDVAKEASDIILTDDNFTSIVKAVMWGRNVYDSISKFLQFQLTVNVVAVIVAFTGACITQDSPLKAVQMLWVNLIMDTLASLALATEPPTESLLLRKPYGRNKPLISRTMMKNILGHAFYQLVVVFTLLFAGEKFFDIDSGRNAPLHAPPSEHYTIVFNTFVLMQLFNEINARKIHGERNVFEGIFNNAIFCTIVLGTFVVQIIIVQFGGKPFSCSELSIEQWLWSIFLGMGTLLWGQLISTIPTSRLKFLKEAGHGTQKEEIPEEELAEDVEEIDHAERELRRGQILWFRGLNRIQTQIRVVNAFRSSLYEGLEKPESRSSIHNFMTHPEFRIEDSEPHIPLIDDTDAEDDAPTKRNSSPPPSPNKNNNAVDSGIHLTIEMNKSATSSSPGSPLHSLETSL
UniProt Q9Z2H5: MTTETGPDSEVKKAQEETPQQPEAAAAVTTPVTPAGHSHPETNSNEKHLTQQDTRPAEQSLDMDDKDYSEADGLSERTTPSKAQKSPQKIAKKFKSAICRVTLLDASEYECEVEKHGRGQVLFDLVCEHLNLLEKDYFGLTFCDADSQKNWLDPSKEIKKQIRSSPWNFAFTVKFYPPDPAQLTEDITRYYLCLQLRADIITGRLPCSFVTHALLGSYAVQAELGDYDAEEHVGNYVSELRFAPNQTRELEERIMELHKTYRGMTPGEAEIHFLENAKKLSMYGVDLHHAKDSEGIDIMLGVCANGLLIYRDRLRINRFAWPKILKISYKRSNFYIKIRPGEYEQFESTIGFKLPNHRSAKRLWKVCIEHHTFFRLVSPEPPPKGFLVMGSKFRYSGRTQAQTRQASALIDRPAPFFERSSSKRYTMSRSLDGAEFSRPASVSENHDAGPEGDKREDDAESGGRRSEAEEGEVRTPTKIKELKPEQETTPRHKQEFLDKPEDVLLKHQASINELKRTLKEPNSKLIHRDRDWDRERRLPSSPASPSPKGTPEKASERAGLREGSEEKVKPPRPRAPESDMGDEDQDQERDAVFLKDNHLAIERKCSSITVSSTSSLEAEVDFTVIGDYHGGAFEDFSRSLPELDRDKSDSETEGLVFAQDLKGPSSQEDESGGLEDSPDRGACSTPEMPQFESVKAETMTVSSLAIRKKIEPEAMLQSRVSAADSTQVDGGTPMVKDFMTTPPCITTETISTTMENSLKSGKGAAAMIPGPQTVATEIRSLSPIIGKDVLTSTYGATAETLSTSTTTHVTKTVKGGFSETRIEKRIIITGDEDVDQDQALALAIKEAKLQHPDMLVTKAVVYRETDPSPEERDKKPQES
UniProt Q9WV92: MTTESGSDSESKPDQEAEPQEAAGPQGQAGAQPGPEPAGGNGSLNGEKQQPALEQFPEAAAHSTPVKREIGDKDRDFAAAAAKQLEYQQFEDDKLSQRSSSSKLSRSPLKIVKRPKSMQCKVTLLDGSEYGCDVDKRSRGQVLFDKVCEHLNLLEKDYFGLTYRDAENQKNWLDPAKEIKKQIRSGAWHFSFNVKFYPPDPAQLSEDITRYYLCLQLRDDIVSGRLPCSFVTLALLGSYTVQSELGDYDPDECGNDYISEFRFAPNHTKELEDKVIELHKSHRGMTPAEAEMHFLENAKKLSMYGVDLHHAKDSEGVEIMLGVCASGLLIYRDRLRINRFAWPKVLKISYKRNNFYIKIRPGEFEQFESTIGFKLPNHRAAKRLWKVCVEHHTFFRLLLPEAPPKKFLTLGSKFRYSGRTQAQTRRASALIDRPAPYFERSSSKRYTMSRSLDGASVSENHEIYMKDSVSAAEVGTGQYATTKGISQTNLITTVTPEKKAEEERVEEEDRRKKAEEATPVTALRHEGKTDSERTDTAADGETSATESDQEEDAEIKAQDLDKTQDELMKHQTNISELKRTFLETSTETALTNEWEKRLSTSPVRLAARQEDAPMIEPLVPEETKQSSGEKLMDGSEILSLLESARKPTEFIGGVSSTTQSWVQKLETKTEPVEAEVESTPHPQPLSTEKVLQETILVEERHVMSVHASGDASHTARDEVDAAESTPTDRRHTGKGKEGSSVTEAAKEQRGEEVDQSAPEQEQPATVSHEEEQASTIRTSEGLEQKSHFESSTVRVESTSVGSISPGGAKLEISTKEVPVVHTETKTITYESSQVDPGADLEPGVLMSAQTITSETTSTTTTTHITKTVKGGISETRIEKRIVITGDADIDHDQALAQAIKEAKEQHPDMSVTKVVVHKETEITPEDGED
UniProt Q8BPM0: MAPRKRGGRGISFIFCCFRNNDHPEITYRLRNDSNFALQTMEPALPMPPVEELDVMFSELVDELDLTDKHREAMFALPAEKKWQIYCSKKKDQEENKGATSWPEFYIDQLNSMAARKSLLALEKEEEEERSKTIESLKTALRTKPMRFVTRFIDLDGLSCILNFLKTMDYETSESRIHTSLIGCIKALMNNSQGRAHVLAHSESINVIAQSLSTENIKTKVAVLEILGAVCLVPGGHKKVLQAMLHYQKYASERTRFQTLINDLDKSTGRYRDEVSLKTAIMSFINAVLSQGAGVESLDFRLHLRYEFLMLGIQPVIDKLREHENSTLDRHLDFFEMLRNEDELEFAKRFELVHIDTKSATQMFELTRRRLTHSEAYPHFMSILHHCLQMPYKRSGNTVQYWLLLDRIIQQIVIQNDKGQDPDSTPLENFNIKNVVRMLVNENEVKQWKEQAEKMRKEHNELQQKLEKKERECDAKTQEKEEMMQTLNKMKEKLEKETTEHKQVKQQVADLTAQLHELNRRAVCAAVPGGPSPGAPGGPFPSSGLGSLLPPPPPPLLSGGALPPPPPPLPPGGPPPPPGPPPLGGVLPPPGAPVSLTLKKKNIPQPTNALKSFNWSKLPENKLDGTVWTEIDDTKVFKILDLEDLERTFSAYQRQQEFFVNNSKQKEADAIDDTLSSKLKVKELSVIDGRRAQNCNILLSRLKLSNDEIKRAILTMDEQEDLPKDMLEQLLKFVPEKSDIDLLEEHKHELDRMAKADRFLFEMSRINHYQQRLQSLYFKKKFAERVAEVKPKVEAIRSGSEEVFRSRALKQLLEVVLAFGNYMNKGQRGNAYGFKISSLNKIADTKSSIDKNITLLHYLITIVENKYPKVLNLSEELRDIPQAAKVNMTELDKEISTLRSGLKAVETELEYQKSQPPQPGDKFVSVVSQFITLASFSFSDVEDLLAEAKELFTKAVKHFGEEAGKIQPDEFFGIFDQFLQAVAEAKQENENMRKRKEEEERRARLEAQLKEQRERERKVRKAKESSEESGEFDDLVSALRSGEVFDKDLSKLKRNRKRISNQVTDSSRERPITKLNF
UniProt P08113, residues 22-802: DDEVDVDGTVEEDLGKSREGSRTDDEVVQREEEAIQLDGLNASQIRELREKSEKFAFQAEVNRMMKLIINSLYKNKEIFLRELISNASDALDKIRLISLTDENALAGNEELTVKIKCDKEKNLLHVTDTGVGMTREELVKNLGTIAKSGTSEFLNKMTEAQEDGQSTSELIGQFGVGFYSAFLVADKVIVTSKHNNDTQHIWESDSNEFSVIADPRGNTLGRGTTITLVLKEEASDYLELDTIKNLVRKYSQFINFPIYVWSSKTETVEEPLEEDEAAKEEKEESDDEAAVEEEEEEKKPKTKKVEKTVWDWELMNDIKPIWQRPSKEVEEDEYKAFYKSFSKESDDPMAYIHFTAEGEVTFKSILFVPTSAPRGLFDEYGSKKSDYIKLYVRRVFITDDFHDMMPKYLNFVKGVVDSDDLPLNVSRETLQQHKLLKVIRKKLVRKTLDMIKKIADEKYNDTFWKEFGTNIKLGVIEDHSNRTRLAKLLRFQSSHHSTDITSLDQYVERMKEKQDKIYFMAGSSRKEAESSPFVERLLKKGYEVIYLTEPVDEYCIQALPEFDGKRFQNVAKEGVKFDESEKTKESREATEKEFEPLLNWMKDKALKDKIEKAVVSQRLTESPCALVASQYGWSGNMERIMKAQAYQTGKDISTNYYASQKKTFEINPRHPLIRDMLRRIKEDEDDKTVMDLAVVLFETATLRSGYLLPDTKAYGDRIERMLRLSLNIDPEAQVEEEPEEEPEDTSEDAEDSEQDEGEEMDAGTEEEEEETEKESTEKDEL

Target: T1, Transglutaminase-2 (mouse (endogenous in mouse brain)) (UniProt P21981)
T1 sequence: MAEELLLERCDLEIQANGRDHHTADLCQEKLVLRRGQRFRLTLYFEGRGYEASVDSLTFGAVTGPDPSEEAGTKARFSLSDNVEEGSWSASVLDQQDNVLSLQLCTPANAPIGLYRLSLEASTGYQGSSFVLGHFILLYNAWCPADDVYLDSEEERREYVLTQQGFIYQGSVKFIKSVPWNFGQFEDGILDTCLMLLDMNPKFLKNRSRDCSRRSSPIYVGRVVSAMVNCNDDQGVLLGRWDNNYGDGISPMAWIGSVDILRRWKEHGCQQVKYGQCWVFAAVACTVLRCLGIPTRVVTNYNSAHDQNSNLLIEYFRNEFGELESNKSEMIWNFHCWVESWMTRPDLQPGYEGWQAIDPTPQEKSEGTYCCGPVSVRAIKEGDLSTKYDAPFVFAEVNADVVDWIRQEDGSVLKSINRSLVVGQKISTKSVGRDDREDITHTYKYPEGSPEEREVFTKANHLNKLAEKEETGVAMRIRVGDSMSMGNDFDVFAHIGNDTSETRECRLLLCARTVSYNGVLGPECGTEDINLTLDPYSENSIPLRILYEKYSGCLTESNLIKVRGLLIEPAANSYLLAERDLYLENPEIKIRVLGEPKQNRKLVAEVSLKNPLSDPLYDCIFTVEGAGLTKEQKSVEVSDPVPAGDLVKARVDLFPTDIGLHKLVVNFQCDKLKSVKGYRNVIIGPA
Assay: affinity purification with mass spectrometry; TG2 immunoprecipitated from total brain homogenates of 18-month-old WT and APP23 mice with anti-TG2 antibody IA12 crosslinked to protein A/G magnetic beads, 22 h at 4 °C; IP lysis buffer 25 mM Tris pH 7.4, 150 mM NaCl, 1 mM EDTA, 1% NP40, 5% glycerol; on-bead trypsin digest, SWATH MS; TG2−/− cohorts as background, z-test p ≤ 0.05, n = 5 per cohort

Substance | binding
ATP synthase subunit alpha, mitochondrial (from UniProt Q03265 44-553) | binds
Adenylyl cyclase-associated protein 2 (from UniProt Q9CYT6 1-476) | binds
Aldose reductase (from UniProt P45376 1-316) | binds
Ankyrin-1 (from UniProt Q02357 1-1862) | binds
Annexin A5 (from UniProt P48036 1-319) | binds
Calcium-dependent secretion activator 1 (from UniProt Q80TJ1 1-1355) | binds
Carbonic anhydrase 2 (from UniProt P00920 1-260) | binds
Complement factor H (from UniProt P06909 19-1234) | binds
Coronin-1C (from UniProt Q9WUM4 1-474) | binds
Creatine kinase B-type (from UniProt Q04447 1-381) | binds
Cyclin-dependent-like kinase 5 (from UniProt P49615 1-292) | binds
Fatty acid synthase (from UniProt P19096 1-2504) | binds
GTP-binding protein Rheb (from UniProt Q921J2 1-184) | binds
Guanine nucleotide-binding protein G(z) subunit alpha (from UniProt O70443 1-355) | binds
Metabotropic glutamate receptor 3 (from UniProt Q9QYS2 23-879) | binds
Mitogen-activated protein kinase 3 (from UniProt Q63844 1-380) | binds
Myelin basic protein (from UniProt P04370 1-250) | binds
Myosin-10 (from UniProt Q61879 1-1976) | binds

Substance | binding
Neural cell adhesion molecule L1 (from UniProt P11627 20-1260) | binds
Neurexin-2 (from UniProt E9Q7X7 29-1710) | binds
Neuronal cell adhesion molecule (from UniProt Q810U4 30-1256) | binds
Plasma membrane calcium-transporting ATPase 1 (from UniProt G5E829 1-1220) | binds
Potassium/sodium hyperpolarization-activated cyclic nucleotide-gated channel 1 (from UniProt O88704 1-910) | binds
Protein NDRG1 (from UniProt Q62433 1-394) | binds
Protein disulfide-isomerase A3 (from UniProt P27773 25-505) | binds
Protein enabled homolog (from UniProt Q03173 1-802) | binds
Protein kinase C beta type (from UniProt P68404 1-671) | binds
Protein kinase C gamma type (from UniProt P63318 1-697) | binds
Serine/threonine-protein phosphatase 2B catalytic subunit alpha isoform (from UniProt P63328 1-521) | binds
Serum albumin (from UniProt P07724 25-608) | binds
Sodium/potassium-transporting ATPase subunit beta-2 (from UniProt P14231 1-290) | binds
Synaptosomal-associated protein 25 (from UniProt P60879 1-206) | binds
Telomere-associated protein RIF1 (from UniProt Q6PR54 1-2419) | binds
Traf2 and NCK-interacting protein kinase (from UniProt P83510 1-1323) | binds
Type 1 phosphatidylinositol 4,5-bisphosphate 4-phosphatase (from UniProt Q3TWL2 1-284) | binds
Vinculin (from UniProt Q64727 1-1066) | binds

Continued, values first:

binding | Substance
binds | 14-3-3 protein eta (from UniProt P68510 1-246)
binds | Band 4.1-like protein 1 (from UniProt Q9Z2H5 1-879)
binds | Band 4.1-like protein 3 (from UniProt Q9WV92 1-929)
binds | Beta-adrenergic receptor kinase 1 (from UniProt Q99MK8 1-689)
binds | Beta-hexosaminidase subunit beta (from UniProt P20060 32-536)
binds | Brevican core protein (from UniProt Q61361 23-883)
binds | Cullin-5 (from UniProt Q9D5V5 1-780)
binds | Cytoskeleton-associated protein 5 (from UniProt A2AGT5 1-2032)
binds | Disheveled-associated activator of morphogenesis 1 (from UniProt Q8BPM0 1-1077)
binds | Endoplasmin (from UniProt P08113 22-802)
binds | Gamma-enolase (from UniProt P17183 1-434)
binds | Glutamine synthetase (from UniProt P15105 1-373)
binds | Guanine nucleotide-binding protein G(i) subunit alpha-2 (from UniProt P08752 1-355)
binds | Heat shock-related 70 kDa protein 2 (from UniProt P17156 1-633)
binds | Inositol 1,4,5-trisphosphate receptor type 1 (from UniProt P11881 1-2749)
binds | Neurexin-1 (from UniProt Q9CS84 31-1514)
binds | Plexin-B2 (from UniProt B2RXS4 20-1842)
binds | Prolow-density lipoprotein receptor-related protein 1 (from UniProt Q91ZX7 20-4545)
binds | S-adenosylhomocysteine hydrolase-like protein 1 (from UniProt Q80SW1 1-530)
binds | Spectrin alpha chain, non-erythrocytic 1 (from UniProt P16546 1-2472)
binds | Src substrate cortactin (from UniProt Q60598 1-546)
binds | Synaptotagmin-1 (from UniProt P46096 1-421)
binds | Synaptotagmin-2 (from UniProt P46097 1-422)
binds | Ubiquitin carboxyl-terminal hydrolase isozyme L1 (from UniProt Q9R0P9 1-223)
binds | V-type proton ATPase catalytic subunit A (from UniProt P50516 1-617)
binds | Voltage-dependent calcium channel subunit alpha-2/delta-2 (from UniProt Q6PHS9 19-1154)
binds | [Protein ADP-ribosylarginine] hydrolase (from UniProt P54923 1-362)
binds | beta-tubulin (mouse (endogenous in mouse brain))
